Values joined by “and” are separate entries in the source; they are usually repeats but may differ in a detail not shown here. Equal values may be shown once.
Experiment: Exposure media analysis (measured media concentration, UPLC-MSMS)
Details: for Measured media dose: media at 6 dpf; for Dil Corrected Reported Conc. (µM) (measured media concentration): exposure media, replicate plates/samples
[1] = nominal Concentration 4.41 µM, Experiment GX8, Plates A, B, C
[2] = nominal Concentration 7.87 µM, Experiment GX8, Plates A, B, C
[3] = nominal Concentration 14 µM, Experiment GX8, Plates A, B, C
[4] = nominal Concentration 25.1 µM, Experiment GX8, Plates A, B, C
[5] = nominal Concentration 44.8 µM, Experiment GX8, Plates A, B, C
[6] = nominal Concentration 80 µM, Experiment GX8, Plates A, B, C

O=C(O)C(F)(F)C(F)OC(F)(F)C(F)(F)C(F)(F)OC(F)(F)F (stereo not drawn) [ADONA, 4,8-Dioxa-3H-perfluorononanoate]
Measured media dose (nominal 25.1 μM, 0.4% DMSO): 9.98 ± 1.77 mg/L | Measured media dose (nominal 44.8 μM, 0.4% DMSO): 17.04 ± 2.24 mg/L | Measured media dose (nominal 80.0 μM, 0.4% DMSO): 26.52 ± 5.98 mg/L | Dil Corrected Reported Conc. (µM) (measured media concentration) (nominal concentration 4.41 µM): 5.644 µM and 5.085 µM and 5.911 µM | Dil Corrected Reported Conc. (µM) (measured media concentration) (nominal concentration 7.87 µM): 8.763 µM and 8.507 µM and 11.15 µM | Dil Corrected Reported Conc. (µM) (measured media concentration) (nominal concentration 14 µM): 16.52 µM and 14.46 µM and 19.41 µM | Dil Corrected Reported Conc. (µM) (measured media concentration) (nominal concentration 25.1 µM): 21.07 µM and 22.64 µM and 31.16 µM | Dil Corrected Reported Conc. (µM) (measured media concentration) (nominal concentration 44.8 µM): 37.42 µM and 40 µM and 50.39 µM | Dil Corrected Reported Conc. (µM) (measured media concentration) (nominal concentration 80 µM): 68.74 µM and 46.88 µM and 83.26 µM

O=C(O)C(F)(OC(F)(F)C(F)(F)C(F)(F)F)C(F)(F)F (stereo not drawn) [GenX Free Acid in water]
Dil Corrected Reported Conc. (µM) (measured media concentration) (nominal concentration 4.41 µM): 4.913 µM and 4.375 µM and 2.71 µM | Dil Corrected Reported Conc. (µM) (measured media concentration) (nominal concentration 7.87 µM): 6.557 µM and 3.941 µM and 4.587 µM | Dil Corrected Reported Conc. (µM) (measured media concentration) (nominal concentration 14 µM): 12.02 µM and 10.62 µM and 5.982 µM | Dil Corrected Reported Conc. (µM) (measured media concentration) (nominal concentration 25.1 µM): 16.55 µM and 20.79 µM and 12.26 µM | Dil Corrected Reported Conc. (µM) (measured media concentration) (nominal concentration 44.8 µM): 22.15 µM and 18.41 µM and 23.73 µM | Dil Corrected Reported Conc. (µM) (measured media concentration) (nominal concentration 80 µM): 25.01 µM and 33.92 µM and 36.04 µM

O=C(O)C(F)(OC(F)(F)C(F)(F)C(F)(F)F)C(F)(F)F (stereo not drawn) [GenX Free Acid, Perfluoro-2-propoxypropanoic acid]
Parent compound in media (GenX Free Acid diluted in DI water (Study 2)): detectable levels | Parent compound in media at 6 dpf (GenX Free Acid diluted in DMSO (Study 1)): undetectable | Measured media dose (nominal 25.1 μM in DI water (Study 2)): 5.46 ± 1.15 mg/L | Measured media dose (nominal 44.8 μM in DI water (Study 2)): 7.06 ± 0.73 mg/L | Measured media dose (nominal 80.0 μM in DI water (Study 2)): 10.44 ± 1.57 mg/L

O=S(=O)(O)C(F)(F)C(F)(F)OC(F)(C(F)(F)F)C(F)(F)OC(F)=C(F)F (stereo not drawn) [PFESA1, Perfluoro-3,6-dioxa-4-methyl-7-octene-1-sulfonic acid]
Measured media dose (nominal 25.1 μM, 0.4% DMSO): 7.67 ± 1.46 mg/L | Measured media dose (nominal 44.8 μM, 0.4% DMSO): 14.11 ± 1.91 mg/L | Measured media dose (nominal 80.0 μM, 0.4% DMSO): 29.89 ± 2.87 mg/L | Dil Corrected Reported Conc. (µM) (measured media concentration) (nominal concentration 4.41 µM): 2.137 µM and 2.313 µM | Dil Corrected Reported Conc. (µM) (measured media concentration) (nominal concentration 7.87 µM): 4.849 µM and 4.203 µM and 3.876 µM | Dil Corrected Reported Conc. (µM) (measured media concentration) (nominal concentration 14 µM): 9.072 µM and 9.424 µM and 8.255 µM | Dil Corrected Reported Conc. (µM) (measured media concentration) (nominal concentration 25.1 µM): 15.37 µM and 14.54 µM and 21.85 µM | Dil Corrected Reported Conc. (µM) (measured media concentration) (nominal concentration 44.8 µM): 35.83 µM and 25.77 µM and 33.68 µM | Dil Corrected Reported Conc. (µM) (measured media concentration) (nominal concentration 80 µM): 75.32 µM and 67.14 µM and 59.54 µM

O=C(O)C(F)(F)C(F)(F)C(F)(F)C(F)(F)C(F)(F)F [PFHxA, Perfluorohexanoic acid]
Measured media dose (nominal 25.1 μM, 0.4% DMSO): 10.76 ± 0.98 mg/L | Measured media dose (nominal 44.8 μM, 0.4% DMSO): 18.22 ± 1.19 mg/L | Measured media dose (nominal 80.0 μM, 0.4% DMSO): 37.16 ± 7.53 mg/L | Dil Corrected Reported Conc. (measured media concentration) [1]: 7.754 µM and 9.198 µM | Dil Corrected Reported Conc. (measured media concentration) [2]: 12.15 µM and 9.896 µM and 11.07 µM | Dil Corrected Reported Conc. (measured media concentration) [3]: 20.49 µM and 18.89 µM and 23.11 µM | Dil Corrected Reported Conc. (measured media concentration) [4]: 37 µM and 29.89 µM and 35.88 µM | Dil Corrected Reported Conc. (measured media concentration) [5]: 60.42 µM and 52.69 µM and 60.97 µM | Dil Corrected Reported Conc. (measured media concentration) [6]: 115.1 µM and 90.77 µM and 149.2 µM | Dil Corrected Reported Conc. (µM) (measured media concentration) (nominal concentration 4.41 µM): 10.19 µM

O=S(=O)(O)C(F)(F)C(F)(F)C(F)(F)C(F)(F)C(F)(F)C(F)(F)F [PFHxS, Perfluorohexanesulfonic acid]
Measured media dose (nominal 14.0 μM, 0.4% DMSO): 9.07 ± 0.36 mg/L | Measured media dose (nominal 25.1 μM, 0.4% DMSO): 16.06 ± 1.97 mg/L | Measured media dose (nominal 44.8 μM, 0.4% DMSO): 28.04 ± 4.72 mg/L | Dil Corrected Reported Conc. (measured media concentration) [1]: 6.519 µM and 6.751 µM and 6.616 µM | Dil Corrected Reported Conc. (measured media concentration) [2]: 10.3 µM and 11.69 µM and 10.61 µM | Dil Corrected Reported Conc. (measured media concentration) [3]: 21.51 µM and 21.03 µM and 19.59 µM | Dil Corrected Reported Conc. (measured media concentration) [4]: 30.29 µM and 40.16 µM and 39.47 µM | Dil Corrected Reported Conc. (measured media concentration) [5]: 48.78 µM and 70.69 µM and 72.5 µM | Dil Corrected Reported Conc. (measured media concentration) [6]: 92.26 µM and 106.1 µM and 156.6 µM

O=C(O)C(F)(F)C(F)(F)C(F)(F)C(F)(F)C(F)(F)C(F)(F)C(F)(F)F [PFOA, Perfluoro-n-octanoic acid]
Measured media dose (nominal 25.1 μM, 0.4% DMSO): 9.91 ± 0.33 mg/L | Measured media dose (nominal 44.8 μM, 0.4% DMSO): 19.0 ± 2.45 mg/L | Measured media dose (nominal 80.0 μM, 0.4% DMSO): 33.01 ± 8.41 mg/L | Dil Corrected Reported Conc. (measured media concentration) [1]: 5.494 µM and 5.552 µM and 5.442 µM | Dil Corrected Reported Conc. (measured media concentration) [2]: 8.48 µM and 8.499 µM and 14.28 µM | Dil Corrected Reported Conc. (measured media concentration) [3]: 15.17 µM and 13.73 µM | Dil Corrected Reported Conc. (measured media concentration) [4]: 23.83 µM and 24.98 µM and 23.03 µM | Dil Corrected Reported Conc. (measured media concentration) [5]: 48.62 µM and 37.78 µM and 51.53 µM | Dil Corrected Reported Conc. (measured media concentration) [6]: 83.35 µM and 53.2 µM and 102.5 µM

O=S(=O)(O)C(F)(F)C(F)(F)C(F)(F)C(F)(F)C(F)(F)C(F)(F)C(F)(F)C(F)(F)F [PFOS, Perfluorooctanesulfonic acid]
Measured media dose (nominal 1.0 μM, 0.4% DMSO): 0.16 ± 0.007 mg/L | Measured media dose (nominal 1.8 μM, 0.4% DMSO): 0.31 ± 0.038 mg/L | Measured media dose (nominal 3.1 μM, 0.4% DMSO): 0.99 ± 0.194 mg/L | Dil Corrected Reported Conc. (measured media concentration) (nominal concentration 0.173 µM PFOS, experiment GX8, plates A-C): 0.0464 µM and 0.05268 µM and 0.02921 µM | Dil Corrected Reported Conc. (measured media concentration) (nominal concentration 0.309 µM PFOS, experiment GX8, plates A-C): 0.09308 µM and 0.07726 µM and 0.07079 µM | Dil Corrected Reported Conc. (measured media concentration) (nominal concentration 0.552 µM PFOS, experiment GX8, plates A-C): 0.1364 µM and 0.1689 µM and 0.1358 µM | Dil Corrected Reported Conc. (measured media concentration) (nominal concentration 0.986 µM PFOS, experiment GX8, plates A-C): 0.3205 µM and 0.3364 µM and 0.3034 µM | Dil Corrected Reported Conc. (measured media concentration) (nominal concentration 1.76 µM PFOS, experiment GX8, plates A-C): 0.5456 µM and 0.7295 µM and 0.6025 µM | Dil Corrected Reported Conc. (measured media concentration) (nominal concentration 3.144 µM PFOS, experiment GX8, plates A-C): 2.522 µM and 1.628 µM and 1.794 µM

From PMC7228129, “Evaluation of Developmental Toxicity, Developmental Neurotoxicity, and Tissue Dose in Zebrafish Exposed to GenX and Other PFAS” (Environmental Health Perspectives, 2020)
